Laboratory results taken from patent publication US20200054723A1.

Key:
[1] = target: baboon Siglec-8 on baboon eosinophils (baboon); experiment: flow cytometry on peripheral blood eosinophils
[2] = target: baboon Siglec-8 on baboon eosinophils (baboon); experiment: flow cytometry on baboon peripheral blood eosinophils

B1: murine 1H10 antibody (antibody, mouse IgG1, V domains shown)
VH: EVQLQQSGAELVRPGASVKLSCTASGFNIKDYYMYWVKQRPEQGLEWIGRIAPEDGDTEYAPKFQGKATVTADTSSNTAYLHLSSLTSEDTAVYYCTTEGNYYGSSILDYWGQGTTLTVSS
VL: DIQMTQTTSSLSASLGDRVTISCRASQDITNYLNWYQQKPDGTVKLLIYFTSRLHSGVPSRFSGSGSGTDYSLTISNLEQEDIATYFCQQGNTLPWTFGGGTKLEIK
binding [1]: binds

B2: murine 1C3 antibody (antibody, mouse IgG2a, V domains shown)
VH: EVQVVESGGDLVKSGGSLKLSCAASGFPFSSYAMSWVRQTPDKRLEWVAIISSGGSYTYYSDSVKGRFTISRDNAKNTLYLQMSSLKSEDTAMYYCARHETAQAAWFAYWGQGTLVTVSA
VL: QIVLTQSPAIMSASPGEKVTMTCSASSSVSYMHWYQQKSGTSPKRWIYDTSKLAYGVPARFSGSGSGTSYSLTISSMEAEDAATYYCQQWSSNPPTFGGGTKLEIK
binding [2]: no binding (tested: saturating amounts)

Results are given in words; binding and its absence hold for the method and conditions named. For some assays here: Binding calls can cover weak binding; strength is not graded here.
